Results deposited as PubChem BioAssay AID652272 (Drosophila RNAi Screening Center, 2013).

Test: 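Finding fly genes that regulate Hedgehog signal transduction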 (primary screen)
Cells: Drosophila clone 8 (Cl8) cells
Knock-down reagent: long dsRNA against Drosophila genes
Read-out: 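Firefly light from a Hedgehog-responsive ptc promoter reporter and Renilla reference light, both read on a plate reader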
Direction: firefly Hh reporter signal: higher = more ptc reporter light; Renilla reference signal: higher = more Renilla control light
Active means: 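Hit when the z-score averaged over two replicates is under -2 or over +3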
Calls: active = hit: reporter lowered or raised; inactive = not a hit
The screen tested about 21,000 reagents; this is an unselected part of those with a known target gene and a result. Of all reagents, 503 (2.4%) are marked active. 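Raw plate light values, not normalised; calls rest on replicate z-scores that were not deposited; hits include reporter decreases as well as increases.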 Reagents against one gene are numbered here. Names joined by + are all predicted targets of the reagent. Reagent sequences are not shown. Not given: the amount of reagent, the time to read-out.

With CG3609, what was measured?
firefly Hh reporter signal, replicate 1: 86157; firefly Hh reporter signal, replicate 2: 88842; Renilla reference signal, replicate 1: 2064; Renilla reference signal, replicate 2: 2224; outcome: inactive

With DnaJ-1, what was measured?
firefly Hh reporter signal, replicate 1: 69872; firefly Hh reporter signal, replicate 2: 69316; Renilla reference signal, replicate 1: 3510; Renilla reference signal, replicate 2: 2882; outcome: inactive

Which result is listed for baf?
firefly Hh reporter signal, replicate 1: 1.16e5; firefly Hh reporter signal, replicate 2: 59568; Renilla reference signal, replicate 1: 3088; Renilla reference signal, replicate 2: 5842; outcome: inactive

What did the screen give for CG7778?
firefly Hh reporter signal, replicate 1: 85505; firefly Hh reporter signal, replicate 2: 88416; Renilla reference signal, replicate 1: 3794; Renilla reference signal, replicate 2: 3696; outcome: inactive

For CG11791, how do the results read?
firefly Hh reporter signal, replicate 1: 1.36e5; firefly Hh reporter signal, replicate 2: 77748; Renilla reference signal, replicate 1: 5128; Renilla reference signal, replicate 2: 1511; outcome: inactive

With GNBP-like3, how do the results read?
firefly Hh reporter signal, replicate 1: 1.05e5; firefly Hh reporter signal, replicate 2: 42480; Renilla reference signal, replicate 1: 2626; Renilla reference signal, replicate 2: 2278; outcome: inactive

For Gr47a, what was measured?
firefly Hh reporter signal, replicate 1: 70835; firefly Hh reporter signal, replicate 2: 48747; Renilla reference signal, replicate 1: 1584; Renilla reference signal, replicate 2: 3984; outcome: inactive

How did the screen score CG7920?
firefly Hh reporter signal, replicate 1: 1.54e5; firefly Hh reporter signal, replicate 2: 1.40e5; Renilla reference signal, replicate 1: 3622; Renilla reference signal, replicate 2: 3584; outcome: inactive

With CR43670 + grp + CR43671 + 1 more, what does the deposit list?
firefly Hh reporter signal, replicate 1: 82484; firefly Hh reporter signal, replicate 2: 66890; Renilla reference signal, replicate 1: 3057; Renilla reference signal, replicate 2: 2592; outcome: inactive

What is on record for Osi11?
firefly Hh reporter signal, replicate 1: 59398; firefly Hh reporter signal, replicate 2: 81522; Renilla reference signal, replicate 1: 2075; Renilla reference signal, replicate 2: 2256; outcome: inactive

3 entries from above, reformatted:
{"target gene":"Gr47a","reagent":1,"firefly Hh reporter signal, replicate 1":70835,"firefly Hh reporter signal, replicate 2":48747,"Renilla reference signal, replicate 1":1584,"Renilla reference signal, replicate 2":3984,"outcome":"inactive"}
{"target gene":"CG7920","reagent":1,"firefly Hh reporter signal, replicate 1":1.54e5,"firefly Hh reporter signal, replicate 2":1.40e5,"Renilla reference signal, replicate 1":3622,"Renilla reference signal, replicate 2":3584,"outcome":"inactive"}
{"target gene":"CR43670 + grp + CR43671 + 1 more","reagent":1,"firefly Hh reporter signal, replicate 1":82484,"firefly Hh reporter signal, replicate 2":66890,"Renilla reference signal, replicate 1":3057,"Renilla reference signal, replicate 2":2592,"outcome":"inactive"}

Additional results:
With CG17242, what does the deposit list?
firefly Hh reporter signal, replicate 1: 83307; firefly Hh reporter signal, replicate 2: 86413; Renilla reference signal, replicate 1: 1796; Renilla reference signal, replicate 2: 2108; outcome: inactive

With Roc1b + Cdc5, how do the results read?
firefly Hh reporter signal, replicate 1: 1.10e5; firefly Hh reporter signal, replicate 2: 58104; Renilla reference signal, replicate 1: 2747; Renilla reference signal, replicate 2: 3616; outcome: inactive

With CG11498, what was measured?
firefly Hh reporter signal, replicate 1: 1.08e5; firefly Hh reporter signal, replicate 2: 66998; Renilla reference signal, replicate 1: 4315; Renilla reference signal, replicate 2: 661; outcome: inactive

Which result is listed for CG15160?
firefly Hh reporter signal, replicate 1: 92642; firefly Hh reporter signal, replicate 2: 71088; Renilla reference signal, replicate 1: 1945; Renilla reference signal, replicate 2: 7185; outcome: inactive

What is on record for Hey?
firefly Hh reporter signal, replicate 1: 18807; firefly Hh reporter signal, replicate 2: 7692; Renilla reference signal, replicate 1: 916; Renilla reference signal, replicate 2: 936; outcome: active

With Pp1-87B, what does the deposit list?
firefly Hh reporter signal, replicate 1: 75648; firefly Hh reporter signal, replicate 2: 63064; Renilla reference signal, replicate 1: 3717; Renilla reference signal, replicate 2: 3088; outcome: inactive

What is on record for Ube3a?
firefly Hh reporter signal, replicate 1: 1.04e5; firefly Hh reporter signal, replicate 2: 95164; Renilla reference signal, replicate 1: 5057; Renilla reference signal, replicate 2: 3756; outcome: inactive

What is on record for Rdh #1?
firefly Hh reporter signal, replicate 1: 41836; firefly Hh reporter signal, replicate 2: 46535; Renilla reference signal, replicate 1: 1506; Renilla reference signal, replicate 2: 2561; outcome: inactive

With Rdh #2, how do the results read?
firefly Hh reporter signal, replicate 1: 60016; firefly Hh reporter signal, replicate 2: 1.32e5; firefly Hh reporter signal, replicate 3: 15468; Renilla reference signal, replicate 1: 1789; Renilla reference signal, replicate 2: 8708; outcome: inactive

What is on record for mio?
firefly Hh reporter signal, replicate 1: 1.39e5; firefly Hh reporter signal, replicate 2: 78917; Renilla reference signal, replicate 1: 5072; Renilla reference signal, replicate 2: 2912; outcome: inactive

For CG42337 #1, how do the results read?
firefly Hh reporter signal, replicate 1: 80266; firefly Hh reporter signal, replicate 2: 98613; Renilla reference signal, replicate 1: 2711; Renilla reference signal, replicate 2: 2834; outcome: inactive

What did the screen give for CG42337 #2?
firefly Hh reporter signal, replicate 1: 25430; firefly Hh reporter signal, replicate 2: 23972; Renilla reference signal, replicate 1: 1104; Renilla reference signal, replicate 2: 1081; outcome: active
